From patent US20050032696 come the findings set out here.

Data set [1] has as its system T1, ΔhMusTRD1α1 (yeast) (Homo sapiens).
T1 sequence (looked up): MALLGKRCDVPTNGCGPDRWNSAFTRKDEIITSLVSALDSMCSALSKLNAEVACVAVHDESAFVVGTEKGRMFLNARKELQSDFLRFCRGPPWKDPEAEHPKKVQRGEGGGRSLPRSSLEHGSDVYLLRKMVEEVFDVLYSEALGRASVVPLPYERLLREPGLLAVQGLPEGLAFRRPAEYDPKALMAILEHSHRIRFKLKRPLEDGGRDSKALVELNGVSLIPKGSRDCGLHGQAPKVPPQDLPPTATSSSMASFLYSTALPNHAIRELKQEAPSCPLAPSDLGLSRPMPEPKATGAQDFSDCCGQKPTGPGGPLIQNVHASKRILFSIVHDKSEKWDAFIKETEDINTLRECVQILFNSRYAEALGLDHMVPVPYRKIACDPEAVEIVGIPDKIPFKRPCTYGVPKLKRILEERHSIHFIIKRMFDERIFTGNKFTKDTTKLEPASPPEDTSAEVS
As to the kind of experiment: one hybrid. Conditions: protein in cells; variant of USE-B1 tandem repeats (yeast reporter); only the site is given.

Data set [2] relates to T2, hMusTRD1α1 (yeast) (Homo sapiens).
T2 sequence (looked up, limits assumed): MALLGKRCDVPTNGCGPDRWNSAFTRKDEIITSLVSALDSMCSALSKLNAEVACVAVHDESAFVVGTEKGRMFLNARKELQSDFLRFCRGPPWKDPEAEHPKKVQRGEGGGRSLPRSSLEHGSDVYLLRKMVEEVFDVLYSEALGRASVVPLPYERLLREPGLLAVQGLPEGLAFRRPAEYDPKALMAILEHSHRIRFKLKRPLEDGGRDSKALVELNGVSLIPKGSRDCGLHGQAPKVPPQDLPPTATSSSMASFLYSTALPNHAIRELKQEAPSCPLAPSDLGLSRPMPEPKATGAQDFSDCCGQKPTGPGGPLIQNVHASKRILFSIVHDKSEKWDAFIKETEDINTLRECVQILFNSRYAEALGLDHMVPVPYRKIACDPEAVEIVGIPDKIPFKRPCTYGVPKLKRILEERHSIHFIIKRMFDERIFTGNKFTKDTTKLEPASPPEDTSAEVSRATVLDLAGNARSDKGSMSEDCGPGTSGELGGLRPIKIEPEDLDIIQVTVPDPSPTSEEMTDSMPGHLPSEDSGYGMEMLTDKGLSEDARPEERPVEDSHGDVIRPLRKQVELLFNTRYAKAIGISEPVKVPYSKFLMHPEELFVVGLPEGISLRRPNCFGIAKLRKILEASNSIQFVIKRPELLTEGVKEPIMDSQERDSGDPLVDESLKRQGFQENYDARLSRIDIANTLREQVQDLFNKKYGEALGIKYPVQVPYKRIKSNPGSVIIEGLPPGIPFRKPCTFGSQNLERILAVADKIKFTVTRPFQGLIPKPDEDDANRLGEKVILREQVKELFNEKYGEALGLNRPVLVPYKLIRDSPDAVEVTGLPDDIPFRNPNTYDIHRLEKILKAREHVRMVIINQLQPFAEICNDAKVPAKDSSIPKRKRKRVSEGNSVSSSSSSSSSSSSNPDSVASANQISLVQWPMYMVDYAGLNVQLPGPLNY
Nature of the data set: one hybrid. Conditions: protein in cells, only the site is given.

Data set [3] deals with MusTRD-containing complexes, mouse soleus and EDL nuclear extract (Mus musculus). Nature of the data set: EMSA. Conditions: protein in an extract. (A gel shift assay detects complexes by their altered migration in electrophoresis.)
In data set [4] the test system is T3, hMusTRD1α1 786aa (Homo sapiens).
T3 sequence (looked up): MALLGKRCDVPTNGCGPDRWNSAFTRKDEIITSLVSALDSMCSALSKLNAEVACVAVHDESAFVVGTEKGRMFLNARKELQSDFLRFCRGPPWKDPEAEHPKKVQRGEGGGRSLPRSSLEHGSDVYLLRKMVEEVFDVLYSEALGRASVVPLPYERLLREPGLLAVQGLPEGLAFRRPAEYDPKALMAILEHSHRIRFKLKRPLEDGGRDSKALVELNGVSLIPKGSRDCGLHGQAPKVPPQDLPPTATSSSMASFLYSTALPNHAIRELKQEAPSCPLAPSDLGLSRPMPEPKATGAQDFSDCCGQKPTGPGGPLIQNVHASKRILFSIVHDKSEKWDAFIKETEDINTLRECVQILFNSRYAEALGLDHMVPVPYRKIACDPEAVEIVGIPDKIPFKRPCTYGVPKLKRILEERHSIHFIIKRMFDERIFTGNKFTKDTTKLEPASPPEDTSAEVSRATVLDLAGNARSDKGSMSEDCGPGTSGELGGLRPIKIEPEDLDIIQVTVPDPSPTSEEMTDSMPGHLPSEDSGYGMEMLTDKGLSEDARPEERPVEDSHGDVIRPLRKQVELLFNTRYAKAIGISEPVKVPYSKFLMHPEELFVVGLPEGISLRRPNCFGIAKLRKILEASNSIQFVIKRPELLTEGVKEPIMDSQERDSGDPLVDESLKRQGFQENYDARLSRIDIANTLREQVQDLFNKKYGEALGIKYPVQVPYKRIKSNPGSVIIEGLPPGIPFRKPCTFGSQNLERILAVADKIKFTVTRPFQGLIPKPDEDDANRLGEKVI
As to the kind of experiment: EMSA. Conditions: protein translated in vitro, protein details: myc/his, label: 32P.

Data set [5] relates to T4, hMusTRD1α1 (944aa, full length) (Homo sapiens).
T4 sequence (looked up): T2 sequence (looked up, limits assumed)
Nature of the data set: EMSA. As to conditions: protein translated in vitro, protein details: myc/his (pcDNA3.1myc/his), label: 32P.

For data set [6], the system named is T5, hMusTRD1α1 ΔN444 internal deletion of amino acids 100-544 (Homo sapiens).
T5 sequence (looked up): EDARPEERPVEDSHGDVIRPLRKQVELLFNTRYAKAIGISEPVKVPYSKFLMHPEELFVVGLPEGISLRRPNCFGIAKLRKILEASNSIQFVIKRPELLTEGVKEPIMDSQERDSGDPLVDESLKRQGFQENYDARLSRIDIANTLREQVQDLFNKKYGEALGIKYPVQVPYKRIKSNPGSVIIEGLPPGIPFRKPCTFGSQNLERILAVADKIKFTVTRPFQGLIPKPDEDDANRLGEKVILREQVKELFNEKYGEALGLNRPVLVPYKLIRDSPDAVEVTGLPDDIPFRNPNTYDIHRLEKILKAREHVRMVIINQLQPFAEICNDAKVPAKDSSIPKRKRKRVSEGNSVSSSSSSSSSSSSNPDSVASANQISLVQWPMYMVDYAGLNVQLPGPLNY
As to the kind of experiment: EMSA. Conditions: protein translated in vitro, protein details: myc/his, label: 32P.

Data set [7] has as its system T6, hMusTRD1α1 458aa (Homo sapiens).
T6 sequence (looked up): T1 sequence (looked up)
Nature of the data set: EMSA. As to conditions: protein translated in vitro, protein details: myc/his, label: 32P.

The test system of data set [8] is T7, hMusTRD1α1 564aa (Homo sapiens).
T7 sequence (looked up): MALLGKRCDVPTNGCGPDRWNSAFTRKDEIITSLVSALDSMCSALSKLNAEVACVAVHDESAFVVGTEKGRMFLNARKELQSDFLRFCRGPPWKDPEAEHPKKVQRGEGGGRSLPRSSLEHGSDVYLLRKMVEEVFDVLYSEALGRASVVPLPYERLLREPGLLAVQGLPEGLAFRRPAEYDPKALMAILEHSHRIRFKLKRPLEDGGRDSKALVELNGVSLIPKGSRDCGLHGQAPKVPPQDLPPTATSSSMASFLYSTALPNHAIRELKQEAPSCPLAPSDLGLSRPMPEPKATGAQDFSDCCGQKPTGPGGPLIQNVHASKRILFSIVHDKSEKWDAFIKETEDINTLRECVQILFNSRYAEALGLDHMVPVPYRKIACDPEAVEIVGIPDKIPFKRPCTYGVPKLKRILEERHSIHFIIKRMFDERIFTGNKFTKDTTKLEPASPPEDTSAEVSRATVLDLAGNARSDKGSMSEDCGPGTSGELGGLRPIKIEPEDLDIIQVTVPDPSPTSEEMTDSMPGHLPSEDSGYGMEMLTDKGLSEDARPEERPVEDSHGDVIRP
As to the kind of experiment: EMSA. As to conditions: protein translated in vitro, protein details: myc/his, label: 32P.

In data set [9] the test system is T8, hMusTRD1α1 350aa (Homo sapiens).
T8 sequence (looked up): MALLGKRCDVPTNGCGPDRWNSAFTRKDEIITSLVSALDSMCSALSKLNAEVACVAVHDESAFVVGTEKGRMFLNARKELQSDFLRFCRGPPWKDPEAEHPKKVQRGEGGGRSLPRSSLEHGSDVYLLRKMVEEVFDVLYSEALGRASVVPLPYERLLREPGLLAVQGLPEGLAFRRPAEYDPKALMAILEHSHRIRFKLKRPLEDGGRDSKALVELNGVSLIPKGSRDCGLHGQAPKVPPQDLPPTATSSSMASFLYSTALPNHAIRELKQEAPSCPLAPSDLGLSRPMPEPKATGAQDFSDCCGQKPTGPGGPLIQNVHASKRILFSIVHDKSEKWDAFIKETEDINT
Nature of the data set: EMSA. Conditions: RD1 only; protein translated in vitro; protein details: myc/his; label: 32P.

For some of these results: At least one result comes from cells or an extract, where the contact may be indirect. A negative result means that nothing was seen under these conditions. For some of these results: Protein sequences can lack the tags named with them. For some of these results: For at least one entry, the source does not settle the construct or the ends of the probe.

In the case of “AGCCACAGGATATCCATA (double strand) [USE-B1b tandem repeats (yeast reporter)]”, the binding result in data set [1] and in data set [2] (variant of USE-B1 tandem repeats (yeast reporter)) was “no binding” each time.
On to “AGCCACAGGATATCCATA (double strand) [USE-B1b]”, for which the binding result in data set [3] (variant of USE-B1) is reported as “no binding”.
Regarding “AGCCACAGGATATCCATAAGCCACAGGATATCCATAAGCCACAGGATATCCATA (double strand) [(B1b)3x]”, the binding result is listed as “no binding” in data set [4] (variant of (B1)3x, TnIslow USE); “no binding” in [5] (variant of (B1)3x, TnIslow USE); “no binding” in data set [6] (variant of (B1)3x, TnIslow USE); “no binding” in data set [7] (variant of (B1)3x, TnIslow USE); “no binding” in [8] (variant of (B1)3x, TnIslow USE).
Take “AGCCACAGGATTAACATA (double strand) [USE-B1 tandem repeats (yeast reporter)]”: the binding result in data set [2] was “binds”.
For “AGCCACAGGATTAACATA (double strand) [USE-B1]”, the binding result in data set [3] (nuclear extracts of soleus and EDL) is “binds”.
On to “AGCCACAGGATTAACATAAGCCACAGGATTAACATAAGCCACAGGATTAACATA (double strand) [(B1)3x, TnIslow USE]”, for which the binding result in [4] (most avid of the deletions) is given as “binds”; in [5] (blocked by anti-MusTRD 1-20aa antibody, poly(dI-dC), RT) it was “binds”; in [6] (DBD2 in 544-944), “binds”; in data set [9], “no binding”; in data set [7] (DBD1 in 351-458) it was “binds”; in [8], “binds”.
